Measured values taken from PubChem BioAssay AID488840 (Broad Institute, 2010).
About 45 (3%) of roughly 1,400 compounds were called active.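 How the source made its calls: active means half-maximal dose of signal decrease from fit no higher than ten times the top valid tested dose; inconclusive means fit invalid, or curve flat with 30 to 70% inhibition; inactive means the rest.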 This is one part of the list. Entries with a potency or affinity are not part of this list.

Sequences of proteins named here, by UniProt entry; tags and fusion partners are left off. A change or cut given only in a name is not applied to a line headed by its entry.
UniProt O75164: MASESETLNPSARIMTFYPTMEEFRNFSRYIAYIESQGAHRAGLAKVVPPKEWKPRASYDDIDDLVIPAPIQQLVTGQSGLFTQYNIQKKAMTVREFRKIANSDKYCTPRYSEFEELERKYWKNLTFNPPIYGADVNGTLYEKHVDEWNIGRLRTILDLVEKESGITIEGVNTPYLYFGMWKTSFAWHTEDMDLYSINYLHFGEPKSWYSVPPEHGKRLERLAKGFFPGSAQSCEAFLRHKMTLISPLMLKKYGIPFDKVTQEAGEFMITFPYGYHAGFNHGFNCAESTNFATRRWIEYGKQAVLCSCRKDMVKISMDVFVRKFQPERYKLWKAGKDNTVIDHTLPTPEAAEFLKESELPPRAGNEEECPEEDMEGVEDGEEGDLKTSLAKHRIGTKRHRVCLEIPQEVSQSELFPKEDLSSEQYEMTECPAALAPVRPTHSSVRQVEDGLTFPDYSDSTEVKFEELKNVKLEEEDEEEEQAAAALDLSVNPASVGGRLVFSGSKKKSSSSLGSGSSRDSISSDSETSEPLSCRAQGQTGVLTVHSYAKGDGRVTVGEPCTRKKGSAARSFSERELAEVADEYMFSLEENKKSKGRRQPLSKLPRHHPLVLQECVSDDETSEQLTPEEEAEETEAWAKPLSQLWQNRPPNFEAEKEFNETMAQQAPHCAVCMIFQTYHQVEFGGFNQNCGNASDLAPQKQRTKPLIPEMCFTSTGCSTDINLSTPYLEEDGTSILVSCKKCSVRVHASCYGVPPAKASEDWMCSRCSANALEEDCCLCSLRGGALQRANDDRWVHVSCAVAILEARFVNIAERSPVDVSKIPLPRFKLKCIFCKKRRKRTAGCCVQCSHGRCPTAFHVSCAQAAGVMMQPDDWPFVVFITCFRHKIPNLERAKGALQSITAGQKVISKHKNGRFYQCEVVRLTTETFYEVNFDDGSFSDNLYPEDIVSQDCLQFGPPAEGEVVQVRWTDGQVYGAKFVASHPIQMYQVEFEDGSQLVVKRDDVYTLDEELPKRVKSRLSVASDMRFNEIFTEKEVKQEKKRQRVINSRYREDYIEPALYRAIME

target: Lysine-specific demethylase 4A (Homo sapiens) (UniProt O75164); test: inhibition of JMJD2A H3K9me3 demethylation – biochemical, DELFIA europium, cherry-picked samples, selectivity assay for GASC-1 inhibitor project, dose response (AID 488840); details: GST-JMJD2A(1-420) H3K9me3 demethylation; at 6 µM (top of the series) unless noted;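 further: europium signal reports the dimethyl H3K9 product detected by antibody so inhibitors lower it; 0% = median of neutral control wells and -100% = median of positive control wells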

Activity change, negative = inhibition, inactive:
CCCCOc1ccc(C(=O)Nc2ccc(N3CCN(C(C)=O)CC3)cc2)cc1 -0.903%, CS(=O)(=O)N(CC(=O)O)c1cc(Cl)cc(Cl)c1 6.16%, CC(C)CNC(=O)c1ccc(NC(=O)c2cccs2)cc1 3.68%, CCc1ccc(-c2nnn(Cc3nn[nH]n3)n2)cc1 1.7%, CCN1C(=O)C(C(=O)Nc2ccc(OC)cc2)C2CC1(C)Oc1ccccc12 (stereo unspecified) 9.69%, Cc1cc(OC(=O)c2c(C)cc(OC(=O)c3c(C)cc(O)cc3O)cc2O)cc(O)c1C(=O)O 1.19%, COc1ccc(-c2nnc(SC(C)C(=O)NCc3ccc4c(c3)OCO4)n2Cc2ccco2)cc1 (stereo unspecified) 5.3%, CCOc1ccc(-c2c(C#N)c(N)nc3c2c(=O)n(C)c(=O)n3C)cc1OC -3.69%, O=c1oc(C2(O)CCCCC2)cc2ccccc12 1.88%, CC(C)CCn1c(NCCN(C)C)nc2c1c(=O)[nH]c(=O)n2C 0.247%, CCOC(=O)N1CCC(c2nc3ccccc3[nH]2)CC1 3.28%, N#CC(=C1CCCC1)c1nc(-c2ccccc2)cs1 -0.243%, CCN1CCC(=NNC(=O)c2ccc(C)c([N+](=O)[O-])c2)CC1 0.261%, CCOc1cc(CN2CCN(CCc3ccccc3)C(CCO)C2)ccc1OC (stereo unspecified) -1.93%, Cc1ccc(C2CC(c3ccccc3)=NN2C(=S)Nc2ccccc2)o1 (stereo unspecified) 3.02%, O=C(CSc1nnnn1-c1ccc(Cl)cc1)N1CCc2ccccc2C1 -8.69%, COc1ccc(CN2CCCCC2C)c(C)c1C (stereo unspecified) 2.39%, COc1ccc(/C=N/Nc2cc(=O)n(C)c(=O)n2C)cc1OC -8.8%, Cc1cccc2sc(NNC(=O)c3cc(=O)c4ccccc4o3)nc12 7.99%, Cc1cccc(Oc2nc(CN3CCOCC3)nc3sc4c(c23)CCCC4)c1 0.732%, Cn1c(=O)[nH]c(=O)c2[nH]c(NCCCN3CCOCC3)nc21 6.62%, CC(=O)N1CCN(c2ccc([N+](=O)[O-])c(-n3nc(C)cc3C)c2)CC1 3.27%, O=C(C[C@H]1C/C=C/CC[C@@H](Cc2ccc(F)cc2)C(=O)O[C@@H](c2ccccc2)CNC1=O)NCCO -0.705%, C[C@H](CO)N1C[C@H](C)[C@@H](CN(C)S(=O)(=O)c2ccc(F)cc2)Oc2ccc(NS(=O)(=O)c3cccs3)cc2C1=O -0.896%, O=C(COC(=O)C1(c2ccc(Cl)cc2)CCCC1)NC1CCS(=O)(=O)C1 (stereo unspecified) 4.75%, CC(=O)NS(=O)(=O)c1ccc(NC(=O)CSc2ccc(Cl)cc2)cc1 -1.91%, NCCN1CCN2C(=O)CN(C(=O)c3ccccc3)CC12 (stereo unspecified) -4.22%, CN(C)c1cccc(C(=O)Nc2cc(C(F)(F)F)ccc2-n2cnc3ccccc32)c1 -3.21%, CC1CN(C)C(C)CC1NCc1ccc2c(c1)OCO2 (stereo unspecified) -0.442%, N=c1n(CCCOc2ccccc2Cl)c2ccccc2n1CC(N)=O 6.15%, CCCCC(=O)NC(NC(=S)N1CCOCC1)C(Cl)(Cl)Cl (stereo unspecified) 3.48%, C[C@H](CO)N1C[C@H](C)[C@@H](CN(C)S(=O)(=O)c2cn(C)cn2)Oc2ccc(NC(=O)C3CC3)cc2C1=O 7%, O=C(Cn1cnc2ccccc2c1=O)Nc1ccc2c(c1)CCC2 -1.76%, Cc1noc(C)c1NC(=O)Nc1ccc2c(c1)C(=O)N([C@H](C)CO)C[C@H](C)[C@@H](CN(C)C(=O)NC1CCCCC1)O2 5.97%, COc1ccc(C(=O)OCCc2sc[n+](CC(=O)c3ccccc3)c2C)cc1 1.87%, Cc1nnsc1C(=O)NNS(=O)(=O)c1ccccc1 0.407%, CCN(C(=O)c1sc(N)c(C#N)c1C)C1CCCCC1 3.95%, c1csc(-c2nc3nc4ccccc4nc3n2Cc2ccc3c(c2)OCO3)c1 7.51%, Cc1ccc(NC(=O)CSc2cccc[n+]2[O-])c([N+](=O)[O-])c1 8.45%, COc1ccc(N(Cc2cc3cccc(C)c3[nH]c2=O)S(C)(=O)=O)cc1 -0.361%, Cc1noc(C)c1NC(=O)N(C)C[C@H]1Oc2ccc(NC(=O)C3CCCCC3)cc2C(=O)N([C@H](C)CO)C[C@@H]1C -3.32%, Cc1ccc(-n2nnc3c(SCC(=O)NCC4CCCO4)ncnc32)cc1 (stereo unspecified) 4.98%, O=C(NCC(c1ccco1)N1CCN(c2ccc(F)cc2)CC1)OCc1ccccc1 (stereo unspecified) -0.0865%, COC(=O)c1cc(C#N)c(OC)nc1C 5.1%, CC(C)(C)C1CCc2[nH]c3ccccc3c(=O)c2C1 (stereo unspecified) -3.92%, O=S(=O)(Nc1ncnc2sc3c(c12)CCC3)c1ccc(Cl)s1 -2.42%, O=C(NCc1ccccn1)c1cn(Cc2ccccc2)nn1 -6.48%, COc1cc(C#N)c(N=C(SCC#N)N2CCOCC2)cc1OC -3.54%, CC(C)(C)OC(=O)CNC(=O)c1[nH]cnc1C(=O)N[C@@H](CCCCN)C(=O)OC(C)(C)C -4.28%, CCCCN(C(=S)NC(=O)c1cc(OC)c(OC)c(OC)c1)c1c(N)n(Cc2ccccc2)c(=O)[nH]c1=O 1.06%, COc1ccc(-c2nn3c(-c4ccco4)nnc3s2)cc1OC 13.3%, Cc1cccc(OCc2nnc(SCC(=O)Nc3cccc(C(=O)N4CCOCC4)c3)o2)c1C -0.255%, CCN(C[C@H]1N[C@@](C)(C(=O)OC)[C@H]2C(=O)N(Cc3ccccc3)C(=O)[C@@H]12)C(=O)Nc1ccc(Cl)cc1 -3.7%, C#CCOCCOCCOCCNc1nc(N2CCN(C(=O)[C@H](CCC(=O)O)n3cc([C@@H](N)[C@H](C)CC)nn3)CC2)nc(N2CCN(C(=O)[C@H](CCCCN)n3cc([C@@H](N)CC(N)=O)nn3)CC2)n1 4.04%, Cc1ccccc1C(=O)Nc1ccccc1C(=O)NC1CC1 -3.94%, O=C(Nc1ccccc1)N(CCc1nc2ccccc2[nH]1)C1CCCC1 -5.44%, O=c1oc2ccccc2c2c1C(c1ccc(Cl)cc1)Nc1ccc3ccccc3c1-2 (stereo unspecified) -0.98%, COc1ccccc1C(c1nnnn1Cc1ccccc1)N1CCN(C2CCCC2)CC1 (stereo unspecified) 1.39%, CCOc1cccc(SCc2noc(C(=O)NC(C)C)c2C(=O)O)c1 2.83%, CC1SC(=NC(=O)C(C)N2C(=O)c3ccccc3C2=O)NC1=O (stereo unspecified) -4.21%, C[C@H](CO)N1C[C@H](C)[C@@H](CN(C)C(=O)Nc2ccc3c(c2)OCO3)Oc2ccc(NC(=O)Cn3cnnn3)cc2C1=O 2.7%, Cc1cc(Cl)c(S(=O)(=O)Nc2ccc3c(c2)OCCO3)cc1OCC(N)=O -3.26%, O=C(Oc1cccc(NC(=O)c2ccco2)c1)c1cccc(S(=O)(=O)N2CCCC2)c1 -3.86%, COc1ccc(NC(=O)CCN2CCCCCC2)cc1 -6.22%, COc1ccc(NC(=O)Nc2ccc3c(c2)C(=O)N([C@H](C)CO)C[C@H](C)[C@@H](CN(C)S(=O)(=O)c2cccs2)O3)cc1 3.58%, COc1cccc(/C=C/C(=O)OCC(=O)NCc2ccc(Cl)cc2)c1 -2.17%, Cc1sc2ncnc(OCC(=O)N3CCN(S(=O)(=O)c4ccc(Cl)cc4)CC3)c2c1C -1.98%, Cc1ccc(S(=O)(=O)N2CCOCC2)cc1C(=O)NNC(=O)c1ccoc1C 1.14%, CC(C)CCSc1cc(NCCO)c([N+](=O)[O-])c2nonc12 -0.0613%, Cc1noc(C)c1C(=O)Nc1ccc2ccccc2c1 1.95%, O=C(CNC(=O)c1ccc(S(=O)(=O)N2CCCC2)cc1)N/N=C/c1ccccc1 0.64%, C=CCNCCOc1cccc(Br)c1 -3.77%, c1ccn2c(SCc3cn4ccsc4n3)nnc2c1 -1.26%, O=C1C=C(NCc2ccc3c(c2)OCO3)CC(c2ccccc2)C1 (stereo unspecified) 8.95%, CCN(C[C@H]1N[C@@](C)(C(=O)OC)[C@H]2C(=O)N(C)C(=O)[C@@H]12)C(=O)Nc1ccc(C)cc1 -3.13%, COC(=O)C1=C(C)N(CCc2cc(OC)c(OC)c(OC)c2)C(=O)N[C@H]1c1cccs1 -1.51%, CN(C)S(=O)(=O)c1ccc(NC(=S)NC(=O)C2CCC2)cc1 7.25%, CN(C)S(=O)(=O)c1ccc(N2CCCC2)c(C(=O)Nc2nc3ccc(F)cc3s2)c1 -0.679%, COc1cccc(-n2nnc3c(=O)n(Cc4ccccc4F)cnc32)c1 -6.03%, Cc1ccccc1-c1ccc(=O)n(CC(=O)Nc2ccc(N3CCOCC3)cc2)n1 0.554%, CCN(CCNS(=O)(=O)c1ccc2c(c1)oc(=O)n2C)c1ccccc1 -1.29%, CCOC(=O)c1nc(C)n(-c2cc(Cl)ccc2Cl)n1 -1.88%, CCCCCCc1cc2cc(-c3nnc(-c4ccccc4)o3)c(=O)oc2cc1O 5.66%, CNC[C@@H]1Oc2ccc(NC(=O)Nc3cccc4ccccc34)cc2C(=O)N([C@@H](C)CO)C[C@@H]1C 1.97%, O=C(NCC(=O)N1CCCCC1)c1sc2ccccc2c1Cl -0.136%, C[C@H](CO)N1C[C@H](C)[C@@H](CN(C)C(=O)Nc2ccc3c(c2)OCO3)Oc2c(NS(=O)(=O)c3ccc(F)cc3)cccc2C1=O -1.91%
